The values below come from paper PMC6677832.

Protein sequences, listed by entry. Tags and fused reporters are not part of them.
UniProt P01106: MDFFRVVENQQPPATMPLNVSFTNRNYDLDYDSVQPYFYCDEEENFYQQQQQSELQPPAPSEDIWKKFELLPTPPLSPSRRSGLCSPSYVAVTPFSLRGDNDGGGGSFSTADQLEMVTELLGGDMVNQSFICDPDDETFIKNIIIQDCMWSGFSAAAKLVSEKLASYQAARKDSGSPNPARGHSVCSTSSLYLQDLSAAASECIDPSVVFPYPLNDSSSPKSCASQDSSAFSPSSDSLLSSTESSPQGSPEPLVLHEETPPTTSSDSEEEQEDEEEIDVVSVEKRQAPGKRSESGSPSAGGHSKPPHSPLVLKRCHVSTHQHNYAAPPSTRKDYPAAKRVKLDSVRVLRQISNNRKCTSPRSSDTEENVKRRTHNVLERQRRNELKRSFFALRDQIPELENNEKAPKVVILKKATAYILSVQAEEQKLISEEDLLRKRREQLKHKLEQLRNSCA

The target of test [1] is c-Myc (human (endogenous in DLD-1)) (UniProt P01106). Nature of the test: co-IP; DLD-1 cells after transfection of GLCC1 siRNA; immunoprecipitation and western blot. (In general: In western blotting, separated proteins are transferred to a membrane and probed.)
The target is the same in test [2]. Nature of the test: co-IP; endogenous proteins in DLD-1 cells; HSP90 and c-Myc antibodies, normal rabbit IgG as control; western blot.
Another test has as its target GST-c-Myc (human) (UniProt P01106). Briefly: pull-down; 2 ug GST or GST-c-Myc on glutathione-Sepharose 4B beads; 1 ug His-HSP90 added without or with GLCC1 lncRNA (lncRNA strengthened the interaction); 1 h, 4 °C; 20 mM Tris pH 7.5, 150 mM NaCl, 1% Triton X-100, 2 mM DTT, 1 mM EDTA; anti-GST and anti-His western blot; both purified.
For test [3], the target named is HSP90 (HSP90AA1) (human (endogenous in DLD-1)) (UniProt P07900). Nature of the test: co-IP; co-IP with western blot; cell line not named for this experiment; also done after down-regulation of GLCC1 (interaction impaired).

Results are given in words; binding and its absence hold for the method and conditions named. For some of these results: In cells and extracts the contact can be indirect. Some results given as binding are weak or reduced against the parent protein; the word gives no strength.

With “HSP90 (HSP90AA1) (from UniProt P07900 1-732)”, the values for the binding result in test [1] and in test [2] were “no binding (condition: after knock-down of GLCC1 (siRNA))” and “binds”, respectively.
On to His-HSP90 (from UniProt P07900 1-732), for which the binding entry in the test with GST-c-Myc (human) is recorded as “binds”.

B1: USP22 (enzyme, UniProt Q9UPT9 1-525)
chain: MVSRPEPEGEAMDAELAVAPPGCSHLGSFKVDNWKQNLRAIYQCFVWSGTAEARKRKAKSCICHVCGVHLNRLHSCLYCVFFGCFTKKHIHEHAKAKRHNLAIDLMYGGIYCFLCQDYIYDKDMEIIAKEEQRKAWKMQGVGEKFSTWEPTKRELELLKHNPKRRKITSNCTIGLRGLINLGNTCFMNCIVQALTHTPLLRDFFLSDRHRCEMQSPSSCLVCEMSSLFQEFYSGHRSPHIPYKLLHLVWTHARHLAGYEQQDAHEFLIAALDVLHRHCKGDDNGKKANNPNHCNCIIDQIFTGGLQSDVTCQVCHGVSTTIDPFWDISLDLPGSSTPFWPLSPGSEGNVVNGESHVSGTTTLTDCLRRFTRPEHLGSSAKIKCSGCHSYQESTKQLTMKKLPIVACFHLKRFEHSAKLRRKITTYVSFPLELDMTPFMASSKESRMNGQYQQPTDSLNNDNKYSLFAVVNHQGTLESGHYTSFIRQHKDQWFKCDDAIITKASIKDVLDSEGYLLFYHKQFLEYE
For B1, the binding entry in test [3] is recorded as “binds”.
